In the supplement of paper PMC3682954:
Where “and” joins values, the source holds several entries; their conditions need not be identical. Identical values can stand only once. Counter-ions that a name gives are not always drawn. ± gives the standard deviation of the averaged measurements. The list shows a part of the results. Most values come without repeats; read them as rough.

Test system: RAW 264.7
Test: cell viability (MTT) relative to vehicle control; higher = more viable cells
Settings: stimulus: HMGB1 5 ug/ml, 18 h
[1] = compound concentration: 1 ug/ml

Q: With `CCc1oc2ccccc2c1C(=O)c1cc(Br)c(O)c(Br)c1` [Benzbromarone] as the molecule, how does the cell viability (compound concentration: 3 uM) read?
A: 86.4%

Q: Which cell viability (compound concentration: 3 uM) does the source give for `CCc1oc2ccccc2c1C(=O)c1cc(Br)c(O)c(Br)c1` here?
A: 88.9% and 93.8%

Q: For `NCc1ccc(S(N)(=O)=O)cc1` [Mafenide hydrochloride], which cell viability (compound concentration: 3 uM) is on record?
A: 106%

Q: How did the cell viability (compound concentration: 3 uM) turn out when `NCc1ccc(S(N)(=O)=O)cc1` was run?
A: 118%

Q: `CN[C@@H]1[C@H](O[C@H]2[C@H](O[C@H]3[C@H](O)[C@@H](O)[C@H](NC(=N)N)[C@@H](O)[C@@H]3NC(=N)N)O[C@@H](C)[C@]2(O)CO)O[C@@H](CO)[C@H](O)[C@H]1O` was tested. Which cell viability (compound concentration: 3 uM) did it give?
A: 97.9%

Q: Which cell viability (compound concentration: 3 uM) does the source give for `CN[C@@H]1[C@H](O[C@H]2[C@H](O[C@H]3[C@H](O)[C@@H](O)[C@H](NC(=N)N)[C@@H](O)[C@@H]3NC(=N)N)O[C@@H](C)[C@]2(O)CO)O[C@@H](CO)[C@H](O)[C@H]1O` [Dihydrostreptomycin sulfate] here?
A: 97.6%

Q: How did the cell viability (compound concentration: 3 uM) turn out when `CN(CC[C@@H](Oc1ccc(C(F)(F)F)cc1)c1ccccc1)CC(=O)[O-].[Li+]` was run?
A: 105%

Q: For `CCN1CCC[C@H]1CNC(=O)c1c(O)c(Cl)cc(Cl)c1OC` [Raclopride], which cell viability (compound concentration: 3 uM) is on record?
A: 116 ± 30%

Q: For `O=C(O)c1ccccc1`, which cell viability (compound concentration: 3 uM) is on record?
A: 102%

Q: Which cell viability (compound concentration: 3 uM) does the source give for `O=C(O)c1cccnc1C(=O)O` [Quinolinic acid] here?
A: 101%

Q: `CCCCC[C@H](O)/C=C/[C@H]1[C@H](O)CC(=O)[C@@H]1CCCCCCC(=O)O` [Prostaglandin E1] was tested. Which cell viability (compound concentration: 3 uM) did it give?
A: 97.2%

Q: With `CCCCC[C@H](O)/C=C/[C@H]1[C@H](O)CC(=O)[C@@H]1CCCCCCC(=O)O` [Alprostadil] as the molecule, how does the cell viability (compound concentration: 3 uM) read?
A: 86.2 ± 6.4%

Q: `COc1cc2ncnc(Nc3ccc(F)c(Cl)c3)c2cc1OCCCN1CCOCC1` [Gefitinib] was tested. Which cell viability (compound concentration: 3 uM) did it give?
A: 102 ± 1.2%

Q: How did the cell viability (compound concentration: 3 uM) turn out when `CC(C(=O)O)c1ccc(C(=O)c2cccs2)cc1` (centres undefined) [Suprofen] was run?
A: 100%

Q: For `CC(C(=O)O)c1ccc(C(=O)c2cccs2)cc1` (centres undefined), which cell viability (compound concentration: 3 uM) is on record?
A: 103%

Q: `O=C(c1ccc(OCCCc2c[nH]cn2)cc1)C1CC1` [Ciproxifan hydrochloride] was tested. Which cell viability (compound concentration: 3 uM) did it give?
A: 122%

Q: Which cell viability (compound concentration: 3 uM) does the source give for `CN1CCC[C@@H]1CCO[C@](C)(c1ccccc1)c1ccc(Cl)cc1` [Clemastine fumarate] here?
A: 104 ± 5.8%

Q: How did the cell viability (compound concentration: 3 uM) turn out when `CN1CCC[C@@H]1CCO[C@](C)(c1ccccc1)c1ccc(Cl)cc1` [Clemastine] was run?
A: 100%

Q: `CN1CCC[C@@H]1CCO[C@](C)(c1ccccc1)c1ccc(Cl)cc1` was tested. Which cell viability (compound concentration: 3 uM) did it give?
A: 96.8%

Q: How did the cell viability (compound concentration: 3 uM) turn out when `CCOc1ccc(NC(C)=O)cc1` [Phenacetin] was run?
A: 78.5%

Q: With `CCOc1ccc(NC(C)=O)cc1` as the molecule, how does the cell viability (compound concentration: 3 uM) read?
A: 102%

Q: With `C=CC(C)(O)CCCC(C)CCCC(C)CCCC(C)C` (centres undefined) [Isophytol] as the molecule, how does the cell viability [1] read?
A: 107%

Q: Which cell viability (compound concentration: 3 uM) does the source give for `CN1CCN(c2c(F)cc3c(=O)c(C(=O)O)cn4c3c2SCC4)CC1` here?
A: 102%

Q: Which cell viability (compound concentration: 3 uM) does the source give for `CN1CCN(c2c(F)cc3c(=O)c(C(=O)O)cn4c3c2SCC4)CC1` [Rufloxacin] here?
A: 109 ± 15%

Q: `COc1cccc(-c2oc3cc(OC)ccc3c(=O)c2O)c1` [3',7-Dimethoxy-3-hydroxyflavone] was tested. Which cell viability [1] did it give?
A: 117%

Q: For `CC(=O)N[C@H](Cc1ccc2ccccc2c1)C(=O)O` [(R)-N-Acetyl-2-naphthylalanine], which cell viability [1] is on record?
A: 104%

Q: With `COC(=O)C1=C(C)NC(C)=C(C(=O)OCCN(C)Cc2ccccc2)C1c1cccc([N+](=O)[O-])c1` (centres undefined) [Nicardipine] as the molecule, how does the cell viability (compound concentration: 3 uM) read?
A: 113%

Q: How did the cell viability (compound concentration: 3 uM) turn out when `COC(=O)C1=C(C)NC(C)=C(C(=O)OCCN(C)Cc2ccccc2)C1c1cccc([N+](=O)[O-])c1` (centres undefined) [Nicardipine hydrochloride] was run?
A: 107 ± 20%

Q: For `COC(=O)C1=C(C)NC(C)=C(C(=O)OCCN(C)Cc2ccccc2)C1c1cccc([N+](=O)[O-])c1` (centres undefined), which cell viability (compound concentration: 3 uM) is on record?
A: 117%

Q: `O=c1cc(-c2ccc(O)cc2)oc2cc(O)ccc12` [4',7-Dihydroxyflavone] was tested. Which cell viability [1] did it give?
A: 99.3%

Q: For `COC(=O)C1=C(C)NC(C)=C(C(=O)OCC(C)C)C1c1ccccc1[N+](=O)[O-]` (centres undefined) [Nisoldipine], which cell viability (compound concentration: 3 uM) is on record?
A: 102 ± 12%

Q: For `COC(=O)C1=C(C)NC(C)=C(C(=O)OCC(C)C)C1c1ccccc1[N+](=O)[O-]` (centres undefined), which cell viability (compound concentration: 3 uM) is on record?
A: 104 ± 7.9%

Q: How did the cell viability [1] turn out when `COc1ccc(-c2cc(=O)c3c(OC)cccc3o2)cc1` [4',5-Dimethoxyflavone] was run?
A: 107%

Q: `COc1c2ccoc2cc2oc(=O)ccc12` [Bergapten; 5-Methoxypsoralen, 99%] was tested. Which cell viability [1] did it give?
A: 92.3%

Q: With `COc1c2ccoc2cc2oc(=O)ccc12` as the molecule, how does the cell viability (compound concentration: 3 uM) read?
A: 106%

Q: With `CCCCCCCCCCCC1=C(O)C(=O)C=C(O)C1=O` [Embelin] as the molecule, how does the cell viability [1] read?
A: 84.6%

Q: `NC(=O)NC1NC(=O)NC1=O` (centres undefined) was tested. Which cell viability (compound concentration: 3 uM) did it give?
A: 100%

Q: For `NC(=O)NC1NC(=O)NC1=O` (centres undefined) [Allantoin], which cell viability (compound concentration: 3 uM) is on record?
A: 109%

Q: How did the cell viability (compound concentration: 3 uM) turn out when `CN(C)CCOC(c1ccc(Cl)cc1)c1ccccn1` (centres undefined) [Carbinoxamine maleate salt] was run?
A: 90.6%

Q: `CN(C)CCOC(c1ccc(Cl)cc1)c1ccccn1` (centres undefined) was tested. Which cell viability (compound concentration: 3 uM) did it give?
A: 111%

Q: Which cell viability (compound concentration: 3 uM) does the source give for `O=C1CCc2ccc(OCCCCN3CCN(c4cccc(Cl)c4Cl)CC3)cc2N1` [Aripiprazole] here?
A: 105 ± 9.8%

Q: With `O=C1CCc2ccc(OCCCCN3CCN(c4cccc(Cl)c4Cl)CC3)cc2N1` as the molecule, how does the cell viability (compound concentration: 3 uM) read?
A: 89.5 ± 6.2%

Q: `Cc1ccccc1C(OCCN(C)C)c1ccccc1` (centres undefined) [Orphenadrine hydrochloride] was tested. Which cell viability (compound concentration: 3 uM) did it give?
A: 118 ± 20%

Q: For `Cc1ccccc1C(OCCN(C)C)c1ccccc1` (centres undefined), which cell viability (compound concentration: 3 uM) is on record?
A: 105%

Q: For `NCCNS(=O)(=O)c1cccc2c(Cl)cccc12` [A3 hydrochloride], which cell viability (compound concentration: 3 uM) is on record?
A: 99.9%

Q: Which cell viability (compound concentration: 3 uM) does the source give for `CC(C)NCC(O)c1ccc(O)c(O)c1` (single isomer, unassigned; (-)) [(-)-Isoproterenol hydrochloride] here?
A: 91.2 ± 3.7%

Q: How did the cell viability (compound concentration: 3 uM) turn out when `O=C1C(O)=C([C@H]2CC[C@H](c3ccc(Cl)cc3)CC2)C(=O)c2ccccc21` was run?
A: 104 ± 28%

Q: For `O=C1C(O)=C([C@H]2CC[C@H](c3ccc(Cl)cc3)CC2)C(=O)c2ccccc21` [Atovaquone], which cell viability (compound concentration: 3 uM) is on record?
A: 93.5 ± 24%

Q: For `Cc1cc2c(C(C)C)c(O)c(O)c(/C=N/Nc3nc4ccccc4[nH]c3=O)c2c(O)c1-c1c(C)cc2c(C(C)C)c(O)c(O)c(/C=N/Nc3nc4ccccc4[nH]c3=O)c2c1O`, which cell viability [1] is on record?
A: 111%

Q: With `CN1CCC(=C2c3ccccc3CCc3sccc32)CC1` [Pizotyline] as the molecule, how does the cell viability (compound concentration: 3 uM) read?
A: 93.2%

Q: `CN1CCC(=C2c3ccccc3CCc3sccc32)CC1` was tested. Which cell viability (compound concentration: 3 uM) did it give?
A: 98%

Q: `CN1CCC(=C2c3ccccc3CCc3sccc32)CC1` [Pizotifen malate] was tested. Which cell viability (compound concentration: 3 uM) did it give?
A: 80.3%

Q: For `N=C(N)NCCCCN` [Agmatine sulfate], which cell viability (compound concentration: 3 uM) is on record?
A: 103%

Q: With `CN1CCOC(c2ccccc2)c2ccccc2C1` (centres undefined) [Nefopam hydrochloride] as the molecule, how does the cell viability (compound concentration: 3 uM) read?
A: 105%

Q: How did the cell viability (compound concentration: 3 uM) turn out when `CN1CCOC(c2ccccc2)c2ccccc2C1` (centres undefined) was run?
A: 117%

Q: Which cell viability (compound concentration: 3 uM) does the source give for `COc1ccc2c(c1)CC[C@@H]1[C@@H]2CC[C@]2(C)[C@@H](NCCCCCCN3C(=O)CCC3=O)CC[C@@H]12` here?
A: 96.1%

Q: How did the cell viability (compound concentration: 3 uM) turn out when `CCCCNc1ccc(C(=O)OCCN(C)C)cc1` [Tetracaine hydrochloride] was run?
A: 125%

Q: `CN(C)[C@@H]1C(O)=C(C(=O)NCNCCCC[C@H](N)C(=O)O)C(=O)[C@@]2(O)C(O)=C3C(=O)c4c(O)cccc4[C@@](C)(O)[C@H]3C[C@@H]12` [Lymecycline] was tested. Which cell viability (compound concentration: 3 uM) did it give?
A: 104%

Q: `COc1ccc(NC(=O)c2ccc(-c3ccc(-c4noc(C)n4)cc3C)cc2)cc1N1CCN(C)CC1` was tested. Which cell viability (compound concentration: 3 uM) did it give?
A: 97.5%

Q: `CCN(CC)CCOc1ccc(C(=C(Cl)c2ccccc2)c2ccccc2)cc1` [Clomiphene] was tested. Which cell viability (compound concentration: 3 uM) did it give?
A: 107%

Q: `CCN(CC)CCOc1ccc(C(=C(Cl)c2ccccc2)c2ccccc2)cc1` [Clomiphene citrate (Z,E)] was tested. Which cell viability (compound concentration: 3 uM) did it give?
A: 111%

Q: `CCN(CC)CCOc1ccc(C(=C(Cl)c2ccccc2)c2ccccc2)cc1` was tested. Which cell viability (compound concentration: 3 uM) did it give?
A: 92.9%

Q: `CC(COc1ccccc1Cc1ccccc1)N1CCCCC1` (centres undefined) was tested. Which cell viability (compound concentration: 3 uM) did it give?
A: 89.3%

Q: With `CC(O)(P(=O)(O)O)P(=O)(O)O` as the molecule, how does the cell viability (compound concentration: 3 uM) read?
A: 106%

Q: How did the cell viability (compound concentration: 3 uM) turn out when `CC(O)(P(=O)(O)O)P(=O)(O)O` [Etidronic acid, disodium salt] was run?
A: 98.8%

Q: `CC(O)(P(=O)(O)O)P(=O)(O)O` [Etidronate] was tested. Which cell viability (compound concentration: 3 uM) did it give?
A: 94.6%

Q: `CCC1NC(=O)c2cc(S(N)(=O)=O)c(Cl)cc2N1` (centres undefined) [Quinethazone] was tested. Which cell viability (compound concentration: 3 uM) did it give?
A: 104%

Q: For `COc1ccccc1N1CCN(CCCCNC(=O)c2ccc3ccccc3c2)CC1`, which cell viability (compound concentration: 3 uM) is on record?
A: 80.1% and 93.7%

Q: Which cell viability (compound concentration: 3 uM) does the source give for `O=C1[C@H](CC[C@H](O)c2ccc(F)cc2)[C@@H](c2ccc(O)cc2)N1c1ccc(F)cc1` here?
A: 105 ± 8.2%

Q: For `O=S(=O)(O)c1cc(I)c(O)c2ncccc12`, which cell viability (compound concentration: 3 uM) is on record?
A: 105%

Q: How did the cell viability (compound concentration: 3 uM) turn out when `CC(C)NC[C@H](O)COc1cccc2[nH]ccc12` [S(-)-Pindolol] was run?
A: 108%

Q: Which cell viability (compound concentration: 3 uM) does the source give for `O=C(O)COCCN1CCN([C@H](c2ccccc2)c2ccc(Cl)cc2)CC1` here?
A: 95.4%

Q: Which cell viability (compound concentration: 3 uM) does the source give for `Cc1cnc(C(=O)NCCc2ccc(S(=O)(=O)NC(=O)NC3CCCCC3)cc2)cn1` here?
A: 112%

Q: With `Cc1cnc(C(=O)NCCc2ccc(S(=O)(=O)NC(=O)NC3CCCCC3)cc2)cn1` [Glipizide] as the molecule, how does the cell viability (compound concentration: 3 uM) read?
A: 105 ± 9.8%
